{"source": "paper PMC3235111", "target": "T1, human Phosducin-like protein 3 (PhLP3), untagged (human) (UniProt O14530)", "T1 sequence": "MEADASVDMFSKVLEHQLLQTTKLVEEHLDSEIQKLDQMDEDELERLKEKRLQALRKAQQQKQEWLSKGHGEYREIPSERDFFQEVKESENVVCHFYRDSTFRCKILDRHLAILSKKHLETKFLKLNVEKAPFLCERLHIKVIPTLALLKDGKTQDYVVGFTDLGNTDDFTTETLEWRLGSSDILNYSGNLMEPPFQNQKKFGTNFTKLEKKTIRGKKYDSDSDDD", "experiment": "co-IP; data not shown; immunoprecipitates from CHOK1 cells transfected with PhLP3 or PhLP3V5 plasmid; blots for CCTβ, CCTα, actin and β-tubulin", "note": "These are yes or no findings as the source states them, for the method shown. In cells and extracts the contact can be indirect. Some binding calls cover weakened binding; strength is not graded here. Where a sequence is shown, tags or fusion partners need not be part of it."}
{"substance": "CCTβ (beta subunit of the chaperonin containing TCP1) (from UniProt G3HZ42 1-535)", "values": [{"measurement": "binding", "result": "binds"}]}
